{"sequences": {"note": "By UniProt entry, the sequences of proteins in these tests, tags left out. Where a name states a change or a piece, a line headed by the entry shows the natural chain unless it says otherwise. Residues count along the entry.", "UniProt Q8JGT4, residues 31-943": "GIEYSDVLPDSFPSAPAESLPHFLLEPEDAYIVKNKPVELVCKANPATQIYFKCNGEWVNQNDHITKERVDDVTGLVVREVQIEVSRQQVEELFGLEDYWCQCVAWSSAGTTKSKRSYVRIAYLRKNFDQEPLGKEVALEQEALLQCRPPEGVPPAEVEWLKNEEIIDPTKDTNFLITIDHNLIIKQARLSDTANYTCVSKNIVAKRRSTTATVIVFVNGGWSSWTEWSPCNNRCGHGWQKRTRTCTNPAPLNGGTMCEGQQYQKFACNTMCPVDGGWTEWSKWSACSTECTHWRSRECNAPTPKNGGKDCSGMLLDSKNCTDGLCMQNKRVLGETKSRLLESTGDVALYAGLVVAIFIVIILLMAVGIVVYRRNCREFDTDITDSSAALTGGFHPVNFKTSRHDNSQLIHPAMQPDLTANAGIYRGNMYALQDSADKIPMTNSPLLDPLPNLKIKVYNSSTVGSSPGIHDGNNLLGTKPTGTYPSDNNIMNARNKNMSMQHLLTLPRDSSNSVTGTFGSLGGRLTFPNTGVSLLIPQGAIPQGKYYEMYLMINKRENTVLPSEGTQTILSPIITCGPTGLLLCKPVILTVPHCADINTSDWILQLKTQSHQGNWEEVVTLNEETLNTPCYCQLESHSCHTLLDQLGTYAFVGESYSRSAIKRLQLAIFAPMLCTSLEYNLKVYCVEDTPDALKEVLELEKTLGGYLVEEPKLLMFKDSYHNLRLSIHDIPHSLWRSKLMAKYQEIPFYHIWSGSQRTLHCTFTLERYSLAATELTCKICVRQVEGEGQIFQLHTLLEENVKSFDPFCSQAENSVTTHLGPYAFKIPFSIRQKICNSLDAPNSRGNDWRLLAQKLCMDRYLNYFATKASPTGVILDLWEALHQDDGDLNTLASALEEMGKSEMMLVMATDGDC"}, "source": "paper PMC2683942", "about": "“Unc5B Interacts with FLRT3 and Rnd1 to Modulate Cell Adhesion in Xenopus Embryos” (PLoS ONE, 2009)", "binders": {"B1": {"name": "soluble alkaline phosphatase-FLRT3 ectodomain fusion protein (AP-FLRT3ΔTM) (domain or fragment, Xenopus, UniProt Q70AK3 29-527, looked up)", "chain": "KPCPSVCRCDAGFIYCNDRDLTSIPSGIPDDATTLYLQNNQINNAGIPSDLKGLDKVERIYLYRNSLDEFPINLPKNVKELHLQENNIRTITYDALLQIPFIEELHLDDNSVSAVSIEDGAFRDNIFLRLLFLSRNHLSTIPWGLPKTIEELRLDDNRISTISEISLQDLTNLKRLVLDGNLLNNNGLGERVFMNLINLTELSLVRNSLTSPPANLPGTSLRKLYLQENHMNYVPPNSFADLTQLYRLDMSNNNLTALPQGIFDDLDNLTQLFLRNNPWYCGCKMKWVRDWLQSLPSKVNVRGLMCQAPERVRGMTIKDLNKELFDCKDRIGSNTIHVTTTMLNSLLPAQGQWPVPVTKQPEIRPPDINKIFRTTPIPVKKIITIQVKSITTETIYISWKVALPMTALRLSWQLGHSPVFGSITETIVTGDRAEYLLTALEPESPYRICMVPMETGNIYLSDETPVCIETETAPLKMYNPTTTLNREQEKEPYKNSSLP", "notes": "FLRT3, Xenopus, ectodomain (ΔTM); also called AP-tagged FLRT3ΔTM; source: conditioned medium, concentrated"}}, "biological_target": "T1, Xenopus Unc5B (Xenopus, UniProt Q8JGT4 31-943)", "T1 construct": "Netrin receptor Unc5B, Xenopus; Constructs are in Text S1; source: HEK293T, transfected, on cells", "experiment": "cell surface binding of an alkaline phosphatase fusion protein, chromogenic stain; transfected HEK293T cells incubated 1 h at RT with concentrated AP-FLRT3ΔTM conditioned medium (3 to 8 U/ml AP activity) in DMEM, 10% FCS, 50 mM HEPES; washed with PBS; bound AP stained with Fast Red", "note": "Results are given in words; binding and its absence hold for the method and conditions named. Some results given as binding are weak or reduced against the parent protein; the word gives no strength. Where a sequence is shown, tags or fusion partners need not be part of it.", "data": [{"binder": "B1", "values": [{"measurement": "binding", "value": "binds"}]}]}
